Data as given in PubChem BioAssay AID1487 (National Center for Advancing Translational Sciences (NCATS), 2009).
Where “and” joins values, the source holds several entries; their conditions need not be identical. Equal values may be shown once. Some of the results follow. These are further read-outs of the screen, such as a control signal, another cell line or another target. No call is given for them. The list favours compounds with an active or inconclusive main result. The note in brackets gives the kind of curve behind each potency; many fits are weak.

Assay: qHTS Assay for Modulators of Lamin A Splicing
Conditions: HeLa LMNA splicing GFP/RFP minigene ratio, 48 h
In short: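 Read-out is the ratio of GFP to DsRed2 object intensity, acquired by 488 nm laser-scanning cytometry on HeLa lamin A-EGFP minigene reporter cells. Compound incubation 48 hrs at 37 °C in Opti-MEM with 2% FBS; DMSO 0.5% final.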

[1] = measured here: GFP splicing reporter channel
[2] = measured here: RFP viability control channel

Structure (SMILES): CCOC(=O)c1cccc(NS(=O)(=O)c2ccc(-c3cnc(C4CC4)o3)cc2)c1
- AC50 [1]: 7.94 µM [rising, partial curve]
- AC50 [2]: 1.78 µM [rising, full curve]

Structure (SMILES): COc1ccc(S(=O)(=O)N2N=C(C)Oc3ccccc3C2=O)cc1
- AC50 [1]: 7.08 µM [falling, full curve]
- AC50 [2]: 7.08 µM [falling, full curve]

Structure (SMILES): Cc1cccn2c(=O)c(C=O)c(Sc3ncccn3)nc12
- AC50 [2]: 15.8 µM [rising, single point]

Structure (SMILES): O=c1oc2cc(Br)ccc2n1CSC1=NCCS1
- AC50 [1]: 31.6 µM [rising, single point]
- AC50 [2]: 15.8 µM [rising, single point]

Structure (SMILES): Cc1nnc(NC(=O)CSc2nnc(C)n2-c2ccc(F)cc2)s1
- AC50 [2]: 12.6 µM [rising, partial curve]

Structure (SMILES): S=C(NCCc1ccccn1)Nc1ccc(Cl)c(Cl)c1
- AC50 [2]: 14.1 µM [rising, single point]

Structure (SMILES): CC(C)(C)NC(=O)c1ccc2c(c1)CCO2
- AC50 [1]: 0.158 µM [rising, full curve, poor fit]

Structure (SMILES): CCOc1ccc(NC(=O)c2ncoc2-c2ccco2)cc1
- AC50 [1]: 35.5 µM [falling, partial curve, poor fit]
- AC50 [2]: 35.5 µM [falling, partial curve, poor fit]

Structure (SMILES): COc1ccc(C2(C(=O)NCc3ccccc3Cl)CCOCC2)cc1OC
- AC50 [1]: 0.00501 µM [rising, full curve, poor fit]

Structure (SMILES): CN(C)c1ccc(NC2=C(Cl)C(=O)c3ccccc3C2=O)cc1
- AC50 [1]: 35.5 µM [falling, single point]
- AC50 [2]: 35.5 µM [falling, single point]

Structure (SMILES): Cc1cc[n+](C2=C([O-])c3ccccc3C(=O)/C2=N\S(=O)(=O)c2cccs2)cc1C
- AC50 [1]: 35.5 µM [falling, single point]

Structure (SMILES): CCn1ncc(/C=C2/SC(=S)NC2=O)c1C
- AC50 [1]: 7.08 µM [rising, partial curve, poor fit]

Structure (SMILES): O=C(Cn1cc(C(=O)c2ccco2)c2ccccc21)NC1CCCC1
- AC50 [2]: 15.8 µM [rising, partial curve, poor fit]

Structure (SMILES): COc1cccc(CNC(=O)c2ccc(-n3c(C)cc4c3CCC(C)C4)cc2)c1 (configuration not stated)
- AC50 [2]: 11.2 µM [rising, single point]

Structure (SMILES): C=CCn1c(=O)c(C(=O)OCC)c(O)c2ccccc21
- AC50 [2]: 0.447 µM [falling, full curve, poor fit]

Structure (SMILES): N#Cc1cccc(-c2ccc3ncnc(NCc4ccccc4)c3c2)c1
- AC50 [1]: 12.6 µM [falling, partial curve]
- AC50 [2]: 15.8 µM [falling, partial curve]

Structure (SMILES): CCN(CC(=O)NC(C)(C)C)Cc1nc2c(Br)cc(Br)cc2c(=O)[nH]1
- AC50 [1]: 0.0398 µM [rising, full curve, poor fit]

Structure (SMILES): C=CCN(Cc1cn(C)nc1-c1cccc(Cl)c1)C1CCS(=O)(=O)C1 (configuration not stated)
- AC50 [2]: 0.0447 µM [falling, full curve, poor fit]

Structure (SMILES): CCOc1cc(/C=C2\C(=O)N(Cc3ccco3)C(C)=C2C(=O)OC)ccc1O
- AC50 [1]: 35.5 µM [falling, single point]
- AC50 [2]: 35.5 µM [falling, single point]

Structure (SMILES): N#C/C(=C1\CCCN1)c1nc2ccccc2c(=O)[nH]1
- AC50 [2]: 14.1 µM [rising, single point]

Structure (SMILES): COc1ccc(Cc2c(O)nc(SCC(=O)NC34CC5CC(CC(C5)C3)C4)[nH]c2=O)cc1
- AC50 [1]: 35.5 µM [rising, single point]
- AC50 [2]: 14.1 µM [rising, partial curve, poor fit]

Structure (SMILES): COC(=O)c1ccc(C(=O)OC)c(NC(=S)N2CCN(c3ccc(F)cc3)CC2)c1
- AC50 [1]: 17.8 µM [rising, single point]
- AC50 [2]: 0.891 µM [falling, single point]

Structure (SMILES): CCn1c(=O)c(C(=O)NCc2ccc(OC)c(OC)c2)c(O)c2ccccc21
- AC50 [2]: 17.8 µM [rising, single point]

Structure (SMILES): CSCCOC(=O)c1[nH]c2c(c1C)C(=O)CC(c1ccco1)C2 (configuration not stated)
- AC50 [2]: 2.51 µM [rising, full curve]

Structure (SMILES): COc1cccc(-c2nn(C)c3sc(C(=O)N4CCN(c5ccccn5)CC4)cc23)c1
- AC50 [1]: 22.4 µM [falling, single point]

Structure (SMILES): COc1ccccc1NS(=O)(=O)c1ccc(NN=C2CCCC2)c([N+](=O)[O-])c1
- AC50 [2]: 1.58 µM [rising, partial curve]

Structure (SMILES): NC(=O)c1ccc(NC(=O)COC(=O)C2(c3ccccc3F)CCCC2)cc1
- AC50 [1]: 10 µM [falling, partial curve]

Structure (SMILES): CCCCOc1cc(C(=O)NCCN(CC)CC)c2ccccc2n1
- AC50 [1]: 8.91 nM [falling, full curve, poor fit] and 708 nM [rising, single point]
- AC50 [2]: 0.00708 µM [falling, full curve, poor fit]

Structure (SMILES): CC(=O)c1ccc(NC(=O)COC(=O)c2ccccc2N=Nc2ccc(N(C)C)cc2)cc1
- AC50 [2]: 12.6 µM [rising, partial curve]

Structure (SMILES): Cc1ccc(NC(=O)/C=C/c2ccc(Cl)cc2)nc1
- AC50 [1]: 3.16 µM [falling, partial curve]
- AC50 [2]: 2.24 µM [falling, partial curve, poor fit]

Structure (SMILES): Cc1ccccc1NC(=S)N1CCC(NC(=O)c2ccco2)CC1
- AC50 [1]: 0.447 µM [rising, single point]

Structure (SMILES): O=[N+]([O-])c1ccc(Oc2c(F)c(F)nc(N3CCCC3)c2F)cc1
- AC50 [1]: 20 µM [rising, single point]
- AC50 [2]: 35.5 µM [rising, single point]

Structure (SMILES): CC1CC(C)CN(c2ccc(C(=O)NCc3ccc4c(c3)OCO4)cc2[N+](=O)[O-])C1 (configuration not stated)
- AC50 [1]: 14.1 µM [rising, single point]
- AC50 [2]: 15.8 µM [rising, single point]

Structure (SMILES): O=c1c2ccccc2c(C=NCc2ccccn2)c(O)n1-c1ccccc1
- AC50 [1]: 10 µM [rising, partial curve]
- AC50 [2]: 12.6 µM [rising, partial curve]

Structure (SMILES): O=C(c1cc2sccc2n1Cc1ccc(F)cc1)N1CCN(c2nc3ccccc3s2)CC1
- AC50 [2]: 2.82 µM [rising, full curve]

Structure (SMILES): CC(C)(C)OC(=O)N/N=C/c1ccc(N2CCOCC2)s1
- AC50 [1]: 1.58 µM [falling, partial curve]
- AC50 [2]: 2.51 µM [falling, partial curve]

Structure (SMILES): COc1cc(CC(=O)Nc2ccc3c(c2)CCC3)cc(OC)c1OC
- AC50 [1]: 0.562 µM [rising, full curve, poor fit]
- AC50 [2]: 17.8 µM [rising, partial curve]

Structure (SMILES): Cc1ccc(C)c(SCC(=O)Nc2nnc(-c3ccccc3)o2)c1
- AC50 [2]: 35.5 µM [rising, single point]

Structure (SMILES): COc1cccc(CC2CC(=O)N(c3ccc4c(C)cc(=O)oc4c3)C2=O)c1 (configuration not stated)
- AC50 [1]: 22.4 µM [rising, partial curve, poor fit]
- AC50 [2]: 12.6 µM [rising, partial curve, poor fit]

Structure (SMILES): O=C(NCCCl)NNc1c(Cl)cc(Cl)cc1Cl
- AC50 [1]: 1.26 µM [rising, single point]
- AC50 [2]: 1.26 µM [rising, single point]

Structure (SMILES): O=S(=O)(c1ccc(NC(=S)NCc2cccnc2)cc1)N1CCCCC1
- AC50 [1]: 3.16 µM [rising, full curve, poor fit]

Structure (SMILES): O=C(O)CC1S/C(=N\N=C2CCCCCCC2)N(c2ccccc2)C1=O (configuration not stated)
- AC50 [2]: 0.01 µM [rising, full curve, poor fit]

Structure (SMILES): O=C(NCC(c1ccc(Cl)cc1)N1CCOCC1)c1ccccc1F (configuration not stated)
- AC50 [2]: 0.0224 µM [falling, full curve, poor fit]

Structure (SMILES): Clc1ccc(-c2cn3cc(Br)ccc3n2)cc1Cl
- AC50 [2]: 0.0891 µM [rising, full curve, poor fit]

Structure (SMILES): CCS(=O)(=O)CCn1c([N+](=O)[O-])cnc1C
- AC50 [2]: 2 µM [falling, single point]

Structure (SMILES): Cc1noc(C)c1-c1nc(NC2CCNCC2)c2ccccc2n1
- AC50 [1]: 12.6 µM [falling, partial curve]
- AC50 [2]: 12.6 µM [falling, single point]

Structure (SMILES): CCOC(=O)/C=C/C(=O)Nc1ccccc1-c1ccccc1NC(=O)/C=C/C(=O)OCC
- AC50 [2]: 0.0251 µM [rising, full curve, poor fit]

Structure (SMILES): COC(=O)Nc1ccc(S(=O)(=O)N2CCC(C(=O)N3CCCCC3C)CC2)cc1 (configuration not stated)
- AC50 [1]: 0.251 µM [falling, full curve, poor fit]

Structure (SMILES): COc1cc(/C=C2/C(=O)NN(c3cccc(C)c3)C2=O)ccc1OC(=O)c1ccco1
- AC50 [2]: 35.5 µM [rising, single point]

Structure (SMILES): O=C(c1ccc2ccccc2c1)N1CCN(c2ccc([N+](=O)[O-])c(N3CCOCC3)c2)CC1
- AC50 [1]: 15.8 µM [rising, single point]
- AC50 [2]: 22.4 µM [rising, single point]

Structure (SMILES): O=C(C1CCCO1)N1N=C(c2ccc(Br)cc2)CC1c1ccco1 (configuration not stated)
- AC50 [1]: 14.1 µM [rising, single point]
- AC50 [2]: 35.5 µM [rising, single point]

Structure (SMILES): COc1ccc(C(=O)NCC(c2ccc3c(c2)OCO3)N2CCN(c3ccccc3F)CC2)cc1 (configuration not stated)
- AC50 [1]: 14.1 µM [falling, single point]
- AC50 [2]: 35.5 µM [falling, single point]

Structure (SMILES): COc1ccc(-c2[nH]c(-c3ccccc3)nc2SCC(=O)Nc2nccs2)cc1
- AC50 [1]: 2 µM [falling, single point]

Structure (SMILES): O=C1CCc2cc(OCCCCc3nnnn3C3CCCCC3)ccc2N1
- AC50 [1]: 15.8 µM [falling, single point]
- AC50 [2]: 15.8 µM [falling, partial curve, poor fit]
